± gives the standard deviation of the averaged measurements. This is a selection; strong and weak results do not stand in their true shares.
Tests used:
Assay in all cases: NP40-soluble protein abundance relative to vehicle (solubility fold change) (ratio); higher = more soluble protein in presence of ATP
[1] = biological target: T1, PGLS (UniProt O95336)
T1 sequence (whole entry): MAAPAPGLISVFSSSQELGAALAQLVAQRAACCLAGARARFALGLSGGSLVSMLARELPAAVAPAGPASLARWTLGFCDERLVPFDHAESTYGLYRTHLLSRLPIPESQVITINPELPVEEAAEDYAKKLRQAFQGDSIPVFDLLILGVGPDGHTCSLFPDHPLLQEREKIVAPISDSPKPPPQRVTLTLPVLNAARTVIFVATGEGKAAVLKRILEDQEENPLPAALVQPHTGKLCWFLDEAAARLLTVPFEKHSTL
How it was run: (§1)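 Jurkat crude lysate prepared with a Dounce homogeniser was treated at eight concentrations spanning 0.1 to 10 mM, 10 min at room temperature then 3 min at 37 °C. Solubilisation with 0.8% NP40 and benzonase and ultracentrifugation preceded TMT labelling of the supernatant for LC-MS/MS. Fold change against the detergent-processed vehicle was determined per replicate from vsn-normalised intensities, across three independent experiments.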

[2] = biological target: T2, SEC24A (UniProt O95486)
T2 sequence (whole entry): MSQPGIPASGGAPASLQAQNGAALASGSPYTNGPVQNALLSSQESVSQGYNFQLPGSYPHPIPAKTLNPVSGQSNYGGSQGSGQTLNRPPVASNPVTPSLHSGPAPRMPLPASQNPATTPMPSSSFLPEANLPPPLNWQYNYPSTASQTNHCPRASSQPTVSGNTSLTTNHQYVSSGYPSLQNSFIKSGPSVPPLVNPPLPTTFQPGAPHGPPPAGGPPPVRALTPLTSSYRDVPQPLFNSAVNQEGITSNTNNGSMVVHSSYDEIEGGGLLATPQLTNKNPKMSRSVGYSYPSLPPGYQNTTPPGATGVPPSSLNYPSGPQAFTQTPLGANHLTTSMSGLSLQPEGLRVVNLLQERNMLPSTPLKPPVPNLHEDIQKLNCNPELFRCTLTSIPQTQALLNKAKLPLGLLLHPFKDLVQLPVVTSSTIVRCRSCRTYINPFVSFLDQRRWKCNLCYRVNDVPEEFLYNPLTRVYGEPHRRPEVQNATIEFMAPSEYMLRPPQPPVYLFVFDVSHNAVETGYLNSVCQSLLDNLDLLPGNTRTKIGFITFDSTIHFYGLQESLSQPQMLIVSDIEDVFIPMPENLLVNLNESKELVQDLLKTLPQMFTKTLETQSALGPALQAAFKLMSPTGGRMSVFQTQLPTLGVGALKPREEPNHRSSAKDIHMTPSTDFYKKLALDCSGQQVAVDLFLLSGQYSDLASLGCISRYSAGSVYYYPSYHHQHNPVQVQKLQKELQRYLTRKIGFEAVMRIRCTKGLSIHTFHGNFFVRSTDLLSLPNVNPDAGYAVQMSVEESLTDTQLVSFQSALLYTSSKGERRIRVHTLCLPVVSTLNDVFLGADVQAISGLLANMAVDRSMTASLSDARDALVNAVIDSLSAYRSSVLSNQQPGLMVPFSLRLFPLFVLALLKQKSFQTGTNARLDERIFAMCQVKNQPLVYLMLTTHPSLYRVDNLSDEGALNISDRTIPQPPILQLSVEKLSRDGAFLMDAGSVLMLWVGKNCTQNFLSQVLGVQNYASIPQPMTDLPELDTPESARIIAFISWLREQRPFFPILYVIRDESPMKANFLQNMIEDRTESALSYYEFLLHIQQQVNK
How it was run: as §1

[3] = biological target: T3, USP1 (UniProt O94782)
T3 sequence (whole entry): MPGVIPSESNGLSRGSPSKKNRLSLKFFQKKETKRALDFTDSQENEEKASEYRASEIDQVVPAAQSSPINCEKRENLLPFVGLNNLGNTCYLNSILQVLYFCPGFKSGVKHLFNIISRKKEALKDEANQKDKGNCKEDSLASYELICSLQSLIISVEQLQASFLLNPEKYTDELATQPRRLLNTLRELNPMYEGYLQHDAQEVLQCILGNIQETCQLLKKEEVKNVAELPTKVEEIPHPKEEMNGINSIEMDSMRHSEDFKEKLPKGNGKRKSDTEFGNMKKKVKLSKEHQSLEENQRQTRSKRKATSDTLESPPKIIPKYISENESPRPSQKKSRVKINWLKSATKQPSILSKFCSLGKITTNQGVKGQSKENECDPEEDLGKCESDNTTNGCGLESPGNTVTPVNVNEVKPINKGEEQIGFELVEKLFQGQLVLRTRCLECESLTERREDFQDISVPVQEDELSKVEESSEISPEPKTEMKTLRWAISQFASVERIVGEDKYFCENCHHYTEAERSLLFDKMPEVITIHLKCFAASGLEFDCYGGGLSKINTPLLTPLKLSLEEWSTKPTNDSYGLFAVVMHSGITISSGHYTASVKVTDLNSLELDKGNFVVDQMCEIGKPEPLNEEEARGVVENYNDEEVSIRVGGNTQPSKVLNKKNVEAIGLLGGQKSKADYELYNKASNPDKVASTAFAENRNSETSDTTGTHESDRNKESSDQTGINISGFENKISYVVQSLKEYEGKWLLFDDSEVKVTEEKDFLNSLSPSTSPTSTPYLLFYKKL
How it was run: as §1

[4] = biological target: T4, UniProt O60671 and related entries
T4 sequence (whole entry): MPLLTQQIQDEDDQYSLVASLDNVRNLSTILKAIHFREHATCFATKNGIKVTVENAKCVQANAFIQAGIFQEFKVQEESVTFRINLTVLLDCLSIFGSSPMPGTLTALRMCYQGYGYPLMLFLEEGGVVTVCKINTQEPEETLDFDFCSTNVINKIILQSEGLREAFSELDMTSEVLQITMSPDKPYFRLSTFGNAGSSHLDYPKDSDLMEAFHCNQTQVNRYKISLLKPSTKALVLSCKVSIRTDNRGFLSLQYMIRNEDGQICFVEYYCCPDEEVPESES
How it was run: as §1

[5] = biological target: T5, UniProt O75431 and related entries
T5 sequence (whole entry): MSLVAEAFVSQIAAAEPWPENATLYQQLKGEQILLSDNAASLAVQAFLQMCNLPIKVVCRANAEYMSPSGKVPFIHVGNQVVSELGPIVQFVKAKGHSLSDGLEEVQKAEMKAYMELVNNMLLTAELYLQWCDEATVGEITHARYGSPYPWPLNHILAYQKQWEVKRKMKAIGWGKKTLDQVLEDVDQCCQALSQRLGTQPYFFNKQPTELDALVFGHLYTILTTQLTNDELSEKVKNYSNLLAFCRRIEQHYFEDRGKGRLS
How it was run: as §1

## Nc1ncnc2c1ncn2[C@@H]1O[C@H](COP(=O)(O)OP(=O)(O)OP(=O)(O)O)[C@@H](O)[C@H]1O [adenosine triphosphate]
[1]; concentration: 6mM
  NP40-soluble protein abundance: 0.943 ± 0.046
[1]; concentration: 8mM
  NP40-soluble protein abundance: 0.964 ± 0.039
[1]; concentration: 10mM
  NP40-soluble protein abundance: 0.917 ± 0.066
[2]; concentration: 1mM
  NP40-soluble protein abundance: 1.05 ± 0.058
[2]; concentration: 2mM
  NP40-soluble protein abundance: 1.03 ± 0.08
[2]; concentration: 4mM
  NP40-soluble protein abundance: 1.03 ± 0.079
[2]; concentration: 6mM
  NP40-soluble protein abundance: 0.979 ± 0.072
[2]; concentration: 8mM
  NP40-soluble protein abundance: 1.01 ± 0.044
[2]; concentration: 10mM
  NP40-soluble protein abundance: 0.979 ± 0.054
[3]; concentration: 1mM
  NP40-soluble protein abundance: 0.94 ± 0.064
[3]; concentration: 2mM
  NP40-soluble protein abundance: 0.969 ± 0.02
[3]; concentration: 4mM
  NP40-soluble protein abundance: 1.01 ± 0.021
[3]; concentration: 6mM
  NP40-soluble protein abundance: 0.979 ± 0.037
[3]; concentration: 8mM
  NP40-soluble protein abundance: 0.968 ± 0.013
[3]; concentration: 10mM
  NP40-soluble protein abundance: 0.988 ± 0.026
[4]; concentration: 1mM
  NP40-soluble protein abundance: 1.1 ± 0.09
[4]; concentration: 2mM
  NP40-soluble protein abundance: 1.09 ± 0.039
[4]; concentration: 4mM
  NP40-soluble protein abundance: 1.09 ± 0.22
[4]; concentration: 6mM
  NP40-soluble protein abundance: 1.05 ± 0.11
[4]; concentration: 8mM
  NP40-soluble protein abundance: 1.07 ± 0.081
[4]; concentration: 10mM
  NP40-soluble protein abundance: 1.06 ± 0.034
[5]; concentration: 1mM
  NP40-soluble protein abundance: 1.01 ± 0.059
[5]; concentration: 2mM
  NP40-soluble protein abundance: 0.994 ± 0.042
[5]; concentration: 4mM
  NP40-soluble protein abundance: 0.934 ± 0.037
[5]; concentration: 6mM
  NP40-soluble protein abundance: 0.914 ± 0.024
[5]; concentration: 8mM
  NP40-soluble protein abundance: 0.986 ± 0.053
[5]; concentration: 10mM
  NP40-soluble protein abundance: 0.906 ± 0.021
